# Earlier results in EP2742940A1, “Salts of aza-bicyclo-di-aryl ethers for adminstration once daily, twice daily or thrice daily” (IP Gesellschaft für Management mbH, priority 2012, dated 2014).
# At least one read-out could not be matched to a standard name with certainty.
# Conditions: rats, acute oral dosing of 10 mg/kg
smiles,measurement,value
"Cc1ccc(-c2ccc(O[C@H]3CN4CCC3CC4)cn2)cc1 [Compound A, (R)-3-(6-(4-methylphenyl)-pyridin-3-yloxy)-1-aza-bicyclo[2.2.2]octane]",time at which Cmax was reached,0.25 to 0.5 h
